Data taken from the supplement of paper PMC10849652.
The other results are listed elsewhere or left out.

Chains of the proteins cited; added tags and fusions are not shown. Lines headed by an entry give the natural chain unless they say otherwise; changes in a name come on top.
UniProt P84095: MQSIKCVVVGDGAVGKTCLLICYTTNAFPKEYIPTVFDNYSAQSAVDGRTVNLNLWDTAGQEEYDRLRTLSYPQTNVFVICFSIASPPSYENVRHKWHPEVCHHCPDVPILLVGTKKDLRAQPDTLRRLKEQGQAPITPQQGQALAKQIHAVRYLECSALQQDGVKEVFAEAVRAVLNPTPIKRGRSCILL
UniProt Q9NPQ8: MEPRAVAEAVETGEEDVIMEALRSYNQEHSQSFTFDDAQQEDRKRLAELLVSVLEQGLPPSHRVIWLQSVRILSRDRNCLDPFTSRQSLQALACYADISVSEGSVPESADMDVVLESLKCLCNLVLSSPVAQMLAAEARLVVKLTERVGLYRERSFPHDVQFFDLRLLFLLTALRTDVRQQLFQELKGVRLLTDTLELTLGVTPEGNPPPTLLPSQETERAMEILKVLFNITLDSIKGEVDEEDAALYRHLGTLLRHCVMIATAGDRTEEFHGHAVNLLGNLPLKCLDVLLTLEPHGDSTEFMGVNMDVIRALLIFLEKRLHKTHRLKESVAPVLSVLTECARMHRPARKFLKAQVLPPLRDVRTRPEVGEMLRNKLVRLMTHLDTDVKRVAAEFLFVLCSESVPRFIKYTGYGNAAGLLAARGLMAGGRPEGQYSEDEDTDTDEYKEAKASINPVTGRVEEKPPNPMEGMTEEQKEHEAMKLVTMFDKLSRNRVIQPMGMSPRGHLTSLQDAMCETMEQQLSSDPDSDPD
UniProt Q5VTB9: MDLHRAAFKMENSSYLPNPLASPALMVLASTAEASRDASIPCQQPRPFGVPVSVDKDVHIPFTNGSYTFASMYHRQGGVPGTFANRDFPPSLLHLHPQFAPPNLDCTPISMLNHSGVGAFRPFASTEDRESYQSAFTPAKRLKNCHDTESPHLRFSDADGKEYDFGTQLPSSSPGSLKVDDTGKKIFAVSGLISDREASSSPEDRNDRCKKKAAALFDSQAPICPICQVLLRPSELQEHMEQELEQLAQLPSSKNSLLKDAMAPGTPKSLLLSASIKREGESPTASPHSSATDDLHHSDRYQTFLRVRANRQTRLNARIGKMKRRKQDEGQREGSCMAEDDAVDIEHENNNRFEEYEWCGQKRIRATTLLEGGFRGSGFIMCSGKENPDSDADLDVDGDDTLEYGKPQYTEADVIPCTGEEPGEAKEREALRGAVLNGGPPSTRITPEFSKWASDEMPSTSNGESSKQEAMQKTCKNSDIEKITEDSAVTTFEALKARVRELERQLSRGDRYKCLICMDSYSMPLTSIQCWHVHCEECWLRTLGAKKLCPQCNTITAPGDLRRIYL
UniProt Q86XS8: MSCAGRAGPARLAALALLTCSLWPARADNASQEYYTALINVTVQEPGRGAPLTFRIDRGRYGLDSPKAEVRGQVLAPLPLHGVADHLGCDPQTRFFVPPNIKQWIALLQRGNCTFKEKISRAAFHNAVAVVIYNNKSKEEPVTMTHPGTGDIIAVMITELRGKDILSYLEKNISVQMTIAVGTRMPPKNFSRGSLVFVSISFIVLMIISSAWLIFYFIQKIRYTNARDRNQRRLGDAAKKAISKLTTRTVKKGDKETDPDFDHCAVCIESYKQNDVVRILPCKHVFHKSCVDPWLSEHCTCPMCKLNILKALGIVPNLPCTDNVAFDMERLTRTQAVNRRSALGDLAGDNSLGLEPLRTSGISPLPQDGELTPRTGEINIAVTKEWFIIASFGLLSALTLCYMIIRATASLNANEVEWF
UniProt Q9NVW2: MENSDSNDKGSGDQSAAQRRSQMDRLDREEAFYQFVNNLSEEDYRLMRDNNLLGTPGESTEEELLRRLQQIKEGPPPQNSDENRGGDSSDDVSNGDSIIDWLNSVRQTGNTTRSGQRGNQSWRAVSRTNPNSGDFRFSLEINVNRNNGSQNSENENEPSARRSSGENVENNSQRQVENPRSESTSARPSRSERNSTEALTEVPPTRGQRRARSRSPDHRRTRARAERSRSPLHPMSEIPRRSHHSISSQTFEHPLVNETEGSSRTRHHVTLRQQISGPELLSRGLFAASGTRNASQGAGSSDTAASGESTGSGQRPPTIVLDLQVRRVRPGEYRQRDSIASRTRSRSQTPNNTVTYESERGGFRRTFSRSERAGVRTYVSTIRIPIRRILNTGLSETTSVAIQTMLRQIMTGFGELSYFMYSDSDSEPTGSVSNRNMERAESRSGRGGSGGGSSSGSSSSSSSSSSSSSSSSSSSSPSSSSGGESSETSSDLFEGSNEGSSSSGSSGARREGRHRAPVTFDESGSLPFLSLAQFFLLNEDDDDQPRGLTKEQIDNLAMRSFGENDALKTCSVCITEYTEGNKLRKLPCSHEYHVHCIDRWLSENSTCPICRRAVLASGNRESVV
UniProt P82980: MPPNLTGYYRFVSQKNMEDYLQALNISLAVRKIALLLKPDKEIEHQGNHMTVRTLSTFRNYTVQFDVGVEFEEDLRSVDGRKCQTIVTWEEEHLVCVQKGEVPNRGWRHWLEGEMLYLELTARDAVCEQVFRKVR
UniProt Q6PCD5: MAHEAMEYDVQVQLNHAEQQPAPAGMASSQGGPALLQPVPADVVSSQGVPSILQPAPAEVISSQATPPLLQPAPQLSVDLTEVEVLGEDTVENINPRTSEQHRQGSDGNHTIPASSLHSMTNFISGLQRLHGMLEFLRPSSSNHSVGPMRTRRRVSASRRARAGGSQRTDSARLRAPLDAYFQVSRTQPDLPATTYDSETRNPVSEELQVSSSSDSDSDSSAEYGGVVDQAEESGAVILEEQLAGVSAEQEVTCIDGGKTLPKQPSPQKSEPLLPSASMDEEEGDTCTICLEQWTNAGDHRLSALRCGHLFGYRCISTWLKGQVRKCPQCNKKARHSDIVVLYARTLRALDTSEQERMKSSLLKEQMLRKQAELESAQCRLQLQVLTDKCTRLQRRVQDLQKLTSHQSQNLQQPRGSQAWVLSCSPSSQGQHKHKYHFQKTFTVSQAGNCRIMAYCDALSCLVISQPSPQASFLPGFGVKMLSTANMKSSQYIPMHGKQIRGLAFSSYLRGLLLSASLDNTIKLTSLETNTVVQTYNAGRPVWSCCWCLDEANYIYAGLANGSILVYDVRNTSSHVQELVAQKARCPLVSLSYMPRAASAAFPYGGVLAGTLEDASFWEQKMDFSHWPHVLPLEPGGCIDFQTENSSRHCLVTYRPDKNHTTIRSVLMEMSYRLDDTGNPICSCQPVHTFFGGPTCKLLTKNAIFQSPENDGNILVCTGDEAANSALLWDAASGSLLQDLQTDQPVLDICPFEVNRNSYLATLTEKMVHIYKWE
UniProt Q5UIP0: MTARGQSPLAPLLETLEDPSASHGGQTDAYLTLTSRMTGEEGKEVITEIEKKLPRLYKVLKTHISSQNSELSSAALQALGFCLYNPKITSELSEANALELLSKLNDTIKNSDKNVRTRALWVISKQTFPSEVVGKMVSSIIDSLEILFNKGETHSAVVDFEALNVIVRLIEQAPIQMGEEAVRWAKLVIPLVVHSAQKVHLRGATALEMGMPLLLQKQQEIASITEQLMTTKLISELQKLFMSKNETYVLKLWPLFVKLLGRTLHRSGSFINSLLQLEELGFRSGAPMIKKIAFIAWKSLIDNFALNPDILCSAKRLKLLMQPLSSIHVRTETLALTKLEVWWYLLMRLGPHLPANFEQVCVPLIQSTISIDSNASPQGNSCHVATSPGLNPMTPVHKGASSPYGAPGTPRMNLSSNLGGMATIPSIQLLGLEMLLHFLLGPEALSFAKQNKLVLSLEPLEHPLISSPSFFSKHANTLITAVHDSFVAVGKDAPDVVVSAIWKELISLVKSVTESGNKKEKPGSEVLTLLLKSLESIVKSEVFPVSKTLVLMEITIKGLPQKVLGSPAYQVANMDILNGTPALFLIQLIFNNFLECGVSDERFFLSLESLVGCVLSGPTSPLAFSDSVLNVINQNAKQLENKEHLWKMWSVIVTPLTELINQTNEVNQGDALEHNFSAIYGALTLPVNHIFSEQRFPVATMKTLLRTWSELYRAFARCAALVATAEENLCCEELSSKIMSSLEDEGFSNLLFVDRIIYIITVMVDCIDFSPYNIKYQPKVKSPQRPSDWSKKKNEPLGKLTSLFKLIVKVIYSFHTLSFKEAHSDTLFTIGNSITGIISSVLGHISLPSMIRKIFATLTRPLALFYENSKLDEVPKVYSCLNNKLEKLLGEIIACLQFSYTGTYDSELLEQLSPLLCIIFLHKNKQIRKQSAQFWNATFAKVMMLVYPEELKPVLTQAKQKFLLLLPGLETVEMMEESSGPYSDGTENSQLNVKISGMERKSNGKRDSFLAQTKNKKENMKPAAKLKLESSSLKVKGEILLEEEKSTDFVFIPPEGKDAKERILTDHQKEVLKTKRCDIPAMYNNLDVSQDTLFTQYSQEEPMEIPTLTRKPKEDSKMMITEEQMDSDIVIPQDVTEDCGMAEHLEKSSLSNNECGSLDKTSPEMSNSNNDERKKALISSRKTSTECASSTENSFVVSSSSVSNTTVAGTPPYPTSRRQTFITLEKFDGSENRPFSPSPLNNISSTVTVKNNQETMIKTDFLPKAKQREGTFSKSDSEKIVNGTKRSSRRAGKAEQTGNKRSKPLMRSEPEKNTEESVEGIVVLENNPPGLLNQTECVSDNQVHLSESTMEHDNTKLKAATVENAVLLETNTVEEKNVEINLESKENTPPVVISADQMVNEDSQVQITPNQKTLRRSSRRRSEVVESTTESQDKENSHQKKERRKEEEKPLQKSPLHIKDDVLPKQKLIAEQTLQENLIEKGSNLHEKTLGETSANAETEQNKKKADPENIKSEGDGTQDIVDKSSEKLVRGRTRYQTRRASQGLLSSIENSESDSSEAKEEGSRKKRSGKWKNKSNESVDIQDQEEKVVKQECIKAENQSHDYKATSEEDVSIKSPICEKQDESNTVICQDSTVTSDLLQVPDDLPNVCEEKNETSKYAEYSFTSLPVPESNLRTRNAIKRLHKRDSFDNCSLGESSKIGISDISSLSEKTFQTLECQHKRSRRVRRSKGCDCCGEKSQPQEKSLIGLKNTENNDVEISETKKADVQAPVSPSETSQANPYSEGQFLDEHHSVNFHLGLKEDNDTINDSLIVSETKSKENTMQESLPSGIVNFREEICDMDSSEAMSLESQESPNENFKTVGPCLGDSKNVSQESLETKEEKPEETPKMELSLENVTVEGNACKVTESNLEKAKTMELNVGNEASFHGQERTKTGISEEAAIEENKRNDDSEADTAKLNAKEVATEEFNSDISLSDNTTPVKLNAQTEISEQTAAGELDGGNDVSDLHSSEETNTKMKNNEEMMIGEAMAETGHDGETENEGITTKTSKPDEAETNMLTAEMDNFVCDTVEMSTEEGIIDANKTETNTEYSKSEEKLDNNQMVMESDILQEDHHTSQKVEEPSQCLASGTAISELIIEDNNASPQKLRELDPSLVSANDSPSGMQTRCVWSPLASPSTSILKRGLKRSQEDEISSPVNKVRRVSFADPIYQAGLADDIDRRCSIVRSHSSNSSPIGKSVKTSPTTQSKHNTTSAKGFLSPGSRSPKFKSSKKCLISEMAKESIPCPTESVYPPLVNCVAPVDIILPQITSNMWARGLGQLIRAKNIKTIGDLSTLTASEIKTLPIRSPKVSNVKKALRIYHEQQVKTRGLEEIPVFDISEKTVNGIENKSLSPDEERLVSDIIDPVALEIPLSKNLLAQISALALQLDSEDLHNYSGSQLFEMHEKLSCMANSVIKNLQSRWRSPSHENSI
UniProt Q5EBL4: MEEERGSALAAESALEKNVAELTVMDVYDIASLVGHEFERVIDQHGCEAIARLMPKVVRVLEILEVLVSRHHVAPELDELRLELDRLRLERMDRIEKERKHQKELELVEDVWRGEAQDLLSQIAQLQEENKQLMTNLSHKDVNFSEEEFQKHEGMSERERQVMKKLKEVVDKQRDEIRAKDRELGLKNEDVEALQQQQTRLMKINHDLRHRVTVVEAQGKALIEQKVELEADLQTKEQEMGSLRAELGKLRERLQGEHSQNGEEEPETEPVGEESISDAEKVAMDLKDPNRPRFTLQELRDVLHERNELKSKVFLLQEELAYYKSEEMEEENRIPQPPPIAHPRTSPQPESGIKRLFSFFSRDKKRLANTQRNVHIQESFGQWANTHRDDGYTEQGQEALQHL
UniProt Q9BTD8: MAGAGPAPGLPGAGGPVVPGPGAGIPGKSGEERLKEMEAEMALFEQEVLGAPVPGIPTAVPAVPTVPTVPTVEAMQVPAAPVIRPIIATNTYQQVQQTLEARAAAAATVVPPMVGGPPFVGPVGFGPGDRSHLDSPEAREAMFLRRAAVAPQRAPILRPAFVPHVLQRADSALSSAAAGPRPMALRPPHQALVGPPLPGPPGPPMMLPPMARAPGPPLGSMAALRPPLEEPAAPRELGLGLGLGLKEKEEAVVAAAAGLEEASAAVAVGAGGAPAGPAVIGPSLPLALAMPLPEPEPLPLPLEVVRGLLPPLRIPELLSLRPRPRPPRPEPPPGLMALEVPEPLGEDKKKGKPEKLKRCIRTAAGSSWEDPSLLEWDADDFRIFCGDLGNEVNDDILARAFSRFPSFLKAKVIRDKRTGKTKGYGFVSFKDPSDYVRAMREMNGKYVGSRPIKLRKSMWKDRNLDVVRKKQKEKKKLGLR

Experiments:
Experiment in all cases: log2 fold change, soluble protein after heating vs DMSO (PISA); higher = thermal stabilisation; K562 cells, 10 uM, 30 min; active = over 0.2 and 3.5 SD of the protein, either way, in both replicates (recomputed)
[1] = compound: C1=CC=C(C=C1)[C@H](COC2=CC3=C(C=C2)NC(=O)N3)NC(=O)C4=CC=CN(C4=O)CC5=CC(=C(C=C5)F)F
Summary of the method: (§1)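 K562 cells at 2×10^6 cells/mL were treated for 30 min with 10 μM compound, and aliquots were heated for 3 min over 48°C-58°C before pooling. Extraction used PBS with 0.5% NP-40 at 4°C, and soluble protein was the supernatant after 21,000xg for 90 min, measured by TMTpro 16plex LC-MS/MS with channel sums equalised. Thermal stability values, relative to control samples and from duplicates, are log2 fold changes.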

[2] = compound: CC1=C(SC2=C1C(=N[C@H](C3=NN=C(N32)C)CC(=O)N)C4=CC=C(C=C4)Cl)C
Summary of the method: as §1

[3] = compound: CC1=C2C(=CC=C1)N=C(N(C2=O)C3=CC=CC=C3C)CN4C=NC5=C(N=CN=C54)N
Summary of the method: as §1

[4] = compound: Cc1sc2c(c1C)C(c1ccc(Cl)cc1)=N[C@@H](CC(=O)OC(C)(C)C)c1nnc(C)n1-2
Summary of the method: as §1

[5] = compound: c1ccc([C@@H]2C[C@H]2NC2CCNCC2)cc1
Summary of the method: as §1

Measured: log2 fold change

RFX1 (UniProt P22670)
inactive: [1] -0.018 | [2] 0.027 | [3] 0.003 | [4] -0.032 | [5] -0.015

RMDN3 (UniProt Q96TC7)
inactive: [1] -0.01 | [2] 0.048 | [3] 0.065 | [4] 0.014 | [5] -0.049

RHOG (UniProt P84095)
inactive: [1] 0.024 | [2] -0.08 | [3] 0.028 | [4] -0.029 | [5] -0.076

RIC8A isoform 3 (UniProt Q9NPQ8)
inactive: [1] -0.033 | [2] 0.02 | [3] 0.015 | [4] -0.041 | [5] -0.094

RHOC (UniProt P08134)
inactive: [1] 0.001 | [2] 0.017 | [3] 0.052 | [4] -0.029 | [5] -0.005

RETREG3 (UniProt Q86VR2)
inactive: [1] 0.076 | [2] 0.085 | [3] 0.007 | [4] -0.046 | [5] -0.037

RNF220 (UniProt Q5VTB9)
inactive: [1] 0.004 | [2] 0.072 | [3] 0.14 | [4] -0.045 | [5] 0.038

RIPK2 (UniProt O43353)
inactive: [1] -0.013 | [2] 0 | [3] -0.003 | [4] 0.004 | [5] -0.055

RFC4 (UniProt P35249)
inactive: [1] -0.017 | [2] 0.016 | [3] 0.025 | [4] -0.048 | [5] -0.02

RFESD isoform 2 (UniProt Q8TAC1)
inactive: [1] 0.03 | [2] 0.061 | [3] -0.012 | [4] 0.034 | [5] 0.057

RHBDD1 (UniProt Q8TEB9)
inactive: [1] 0.051 | [2] 0.04 | [3] -0.255 | [5] 0.033

REX1BD (UniProt Q96EN9)
inactive: [2] 0.01 | [5] -0.264

RC3H1 (UniProt Q5TC82)
inactive: [2] -0.199 | [3] -0.06 | [4] 0.101 | [5] -0.187

RBM48 isoform 2 (UniProt Q5RL73)
inactive: [1] 0.008 | [2] 0.058 | [4] -0.36 | [5] 0.113

RC3H2 (UniProt Q9HBD1)
inactive: [4] 0.085

RNF130 (UniProt Q86XS8)
inactive: [1] 0.042 | [2] 0.092 | [5] 0.01

RICTOR isoform 3 (UniProt Q6R327)
inactive: [4] 0.043

RLIM (UniProt Q9NVW2)
inactive: [2] 0.436 | [3] 0.145 | [4] -0.215 | [5] -0.389

RNF166 (UniProt Q96A37)
inactive: [2] 0.03 | [3] -0.06 | [4] -0.055 | [5] 0.037

RNF168 (UniProt Q8IYW5)
inactive: [1] 0.108 | [4] -0.025

RNF170 (UniProt Q96K19)
inactive: [1] -0.084 | [2] -0.003 | [3] 0.18 | [5] 0.053

RFC1 (UniProt P35251)
inactive: [2] -0.294 | [3] 0.051 | [4] 0.123 | [5] -0.183

RIC1 (UniProt Q4ADV7)
inactive: [1] -0.006 | [3] -0.024

RNF139 (UniProt Q8WU17)
inactive: [1] -0.071 | [3] 0.069 | [4] -0.262

RNF169 (UniProt Q8NCN4)
inactive: [2] -0.068 | [4] -0.14 | [5] -0.019

RBP5 (UniProt P82980)
inactive: [1] -0.028 | [2] 0.068 | [4] 0.051 | [5] 0.029

REEP6 (UniProt Q96HR9)
inactive: [1] 0.038 | [2] 0.065 | [3] -0.02 | [4] -0.007 | [5] 0.052

RGN (UniProt Q15493)
inactive: [3] 0.036 | [4] -0.119

RCBTB1 (UniProt Q8NDN9)
inactive: [1] 0.037 | [2] -0.067 | [5] 0.492

RBSN (UniProt Q9H1K0)
inactive: [1] 0.05 | [3] 0.171 | [4] -0.031

RBMY1E (UniProt A6NEQ0)
inactive: [1] 0.063 | [2] -0.02 | [4] 0.001 | [5] 0.145

RECQL5 (UniProt O94762)
inactive: [2] 0.021 | [3] 0.137 | [5] 0.034

RCL1 (UniProt Q5VZU2)
inactive: [4] 0.095

RMI2 (UniProt Q96E14)
inactive: [2] -0.222 | [3] -0.052 | [4] -0.216 | [5] 0.009

RBM7 (UniProt Q9Y580)
inactive: [2] -0.117 | [3] 0.015 | [4] -0.029 | [5] -0.06

RNF20 (UniProt Q5VTR2)
inactive: [1] -0.008 | [2] 0.137 | [4] 0.121 | [5] 0.03

RBM6 (UniProt P78332)
inactive: [2] -0.075 | [4] 0.012 | [5] 0.076

RFWD3 (UniProt Q6PCD5)
inactive: [2] 0.028 | [3] 0.197 | [5] 0.091

RIF1 (UniProt Q5UIP0)
inactive: [2] -0.206 | [3] -0.153 | [4] 0.015 | [5] 0.053

RHBDD2 isoform 2 (UniProt Q6NTF9)
inactive: [1] -0.133 | [2] -0.009 | [5] 0.005

RHD (UniProt Q02161)
inactive: [2] -0.023 | [4] 0.014 | [5] 0.134

RILPL1 (UniProt Q5EBL4)
inactive: [2] -0.065 | [3] 0.131 | [4] -0.029 | [5] -0.207

RIPOR1 isoform 4 (UniProt Q6ZS17)
inactive: [4] 0.288

RMDN2 isoform 2 (UniProt Q96LZ7)
inactive: [3] 0.164

RBM42 (UniProt Q9BTD8)
inactive: [1] 0.049 | [2] -0.186 | [3] -0.065 | [4] 0.057 | [5] 0.024

RNF141 (UniProt Q8WVD5)
inactive: [1] 0.055 | [3] -0.093 | [4] 0.055

Quoted from the entries so far (3 entries):
RHD (UniProt Q02161)
inactive: [2] -0.023 | [4] 0.014 | [5] 0.134

RILPL1 (UniProt Q5EBL4)
inactive: [2] -0.065 | [3] 0.131 | [4] -0.029 | [5] -0.207

RIPOR1 isoform 4 (UniProt Q6ZS17)
inactive: [4] 0.288
